# Values of other authors, collected in patent US20220249438A1, “CARBOCYANINE COMPOUNDS FOR TARGETING MITOCHONDRIA AND ERADICATING CANCER STEM CELLS” (LUNELLA BIOTECH, INC., priority 2019, published 2022).
# For at least one compound, name, drawing or mass did not settle the structure.
# Tested on: CSC burden in early breast cancer patients
# Settings: oral 200 mg/day for 14 days; cited from earlier work
structure (smiles),measurement,value
C[C@H]1c2cccc(O)c2C(=O)C2=C(O)[C@]3(O)C(=O)C(C(N)=O)=C(O)[C@@H](N(C)C)[C@@H]3[C@@H](O)[C@@H]21 [Doxycycline],positive response rate,~90%
